Data published in patent publication US20190276542A1 (QILU PUGET SOUND BIOTHERAPEUTICS, published 2019).
Residue numbers refer to the chain shown, from its start. Results are given in words; binding and its absence hold for the method and conditions named. Some results given as binding are weak or reduced against the parent protein; the word gives no strength.

Chains of the proteins cited; added tags and fusions are not shown. Lines headed by an entry give the natural chain unless they say otherwise; changes in a name come on top. Residues count along the entry.
UniProt Q15116: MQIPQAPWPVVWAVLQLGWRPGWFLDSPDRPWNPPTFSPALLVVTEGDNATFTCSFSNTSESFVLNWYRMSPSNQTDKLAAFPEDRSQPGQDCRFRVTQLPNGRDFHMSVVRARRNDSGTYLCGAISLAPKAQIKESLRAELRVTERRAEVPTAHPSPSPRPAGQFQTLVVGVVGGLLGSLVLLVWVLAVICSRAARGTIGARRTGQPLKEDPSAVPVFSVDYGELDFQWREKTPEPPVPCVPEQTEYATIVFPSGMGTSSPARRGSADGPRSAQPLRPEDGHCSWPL
soluble, biotinylated PD1 protein containing only the extracellular region: residues 25-170 of Q15116

B1: anti-hPD1 antibody #1 (antibody, V domains shown)
VH: QVQLVQSGAEVKKPGASVKVSCKASGYTFTNYWIHWVRQAPGQGLEWMGEIDPYDSYTNYNQKFKGRVTMTVDKSTSTVYMELSSLRSEDTAVYYCARPGFTYGGMDFWGQGTLVTVSS
VL: DIQMTQSPSSLSASVGDRVTITCKSSQSLFNSGNQKNYLAWYQQKPGKVPKLLIYGASTRDSGVPYRFSGSGSGTDFTLTISSLQPEDVATYYCQNDHYYPYTFGGGTKVEIKR
notes: also called Anti-hPD1 #1; Anti-PD1 #1
B2: anti-hPD1 antibody #7 (antibody, human IgG4, V domains shown)
VH: B1 VH with V72I, S77N, F101L
VL: DIVMTQSPDSLAVSLGERATINCRSSQSLFISGNQKNYLAWYQQKPGQPPKLLIYGASTRESGVPDRFSGSGSGTDFTLTISSLQAEDVAVYYCQNNHYYPYTFGGGTKVEIK
notes: also called Anti-hPD1 #7; Anti-PD1 #7

What was measured:
[1] = target: soluble, biotinylated PD1 protein containing only the extracellular region (human) (UniProt Q15116); assay: … competition: antibody pre-incubated with soluble biotinylated PD1, then GST-tagged hPDL1 added; blocked ligand hPDL1
[2] = target: human PD1 expressed on a cell surface (human, UniProt Q15116 25-288); assay: flow cytometry on OKT3-activated human T cells
[3] = target: extracellular domain of a recombinant cynomolgus (rcyno) PD1 (cynomolgus monkey) (UniProt B0LAJ3); assay: SPR (Biacore 3000)

Row | Binder | binding [1] | binding [2] | binding [3]
1 | B1 | binds | binds | 
2 | B2 |  |  | binds
